Reference: patent US5990295A (priority 1998, dated 1999)
At least one peptide structure holds a part that was inferred or is arguable (an end, a ring closure or a residue). Where a SMILES comes first, the peptide text is derived from it. Bridges are numbered along the chain shown (N, C = ends).

Test system: Na^+ channels
Assay type: cell-based, Aplysia californica or Aplysia aculifera

SMILES: CC[C@H](C)[C@@H]1NC(=O)[C@@H]2CCCN2C(=O)[C@H](CC(=O)O)NC(=O)[C@@H]2CSSC[C@@H]3NC(=O)[C@H](CC(N)=O)NC(=O)[C@H](Cc4c[nH]c5ccccc45)NC(=O)CNC(=O)[C@H](CCCNC(=N)N)NC(=O)[C@H](CSSC[C@H](NC(=O)[C@@H]4CCCN4C(=O)[C@H](CCCCN)NC(=O)[C@@H](N)C(C)C)C(=O)N[C@@H](CCCNC(=N)N)C(=O)N[C@@H](CCCCN)C(=O)N[C@@H](CCC(=O)O)C(=O)NCC(=O)N[C@@H](CCC(N)=O)C(=O)N[C@@H](CC(C)C)C(=O)N2)NC(=O)[C@H](CSSC[C@@H](C(=O)N[C@H](C(=O)O)C(C)C)NC(=O)[C@H](Cc2ccccc2)NC(=O)[C@H](CC(C)C)NC(=O)[C@H](C(C)C)NC3=O)NC(=O)[C@H](CC(N)=O)NC(=O)[C@H](CCC(N)=O)NC(=O)[C@H](Cc2ccccc2)NC1=O [δ-conotoxin GmVIA] (H-VKPCRKEGQLCDPIFQNCCRGWNCVLFCV-OH; disulfide 4-19, 11-24, 18-28)
- V0.5 half-inactivating voltage, steady-state sodium current inactivation: -21 mV
- amplitude of slowly inactivating sodium current versus interval between two voltage clamp pulses: almost constant
